For 16 compounds, cell number change and AC50 results are on record in PubChem BioAssay AID2685 (National Center for Advancing Translational Sciences (NCATS), 2010).

The other results are listed elsewhere or left out. The main result of the screen is listed elsewhere. These columns were measured beside it and carry no call. Most of these compounds were active or inconclusive in the main read-out, so they are no random draw. The note in brackets gives the kind of curve behind each potency; many fits are weak.

By AC50 is commonly meant the concentration giving half of the maximal activity seen. Low values mean greater potency, high ones weaker potency.

This assay can be described thus: qHTS Assay for Lipid Storage Modulators in Drosophila S3 Cells.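 For cell number change: cells counted by Cell Tracker Red CMTPX staining in the red channel.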 To be noted: BODIPY lipid droplet fluorescence, 18-24 h; for cell number change: measured here: cell count max response, cells fed with added oleic acid. The method in brief: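 Laser-scanning cytometry quantifies lipid droplet accumulation (500–530 nm total intensity; droplet/cell object ratio) in oleic acid-fed (400 uM added) Drosophila S3 cells treated with a concentration series. 20 uM Triacsin C defined 100% inhibition.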
(In general: qHTS replaces the single test concentration by a dilution series.)

Where [1] appears, read: measured here: lipid fluorescence (Fed channel) AC50, cells fed with added oleic acid.
Where [2] appears, read: measured here: cell number channel AC50, cells fed with added oleic acid.

In the case of `O=C(OCC(=O)N1CCN(S(=O)(=O)c2ccc(Cl)cc2)CC1)c1cccc(OC(F)F)c1`, the cell number change is 2.56%. Take `COc1ccccc1C(=O)Nc1ccc(OCC(=O)N2CCCCC2C)cc1` (stereo unspecified): the cell number change came out at 20%. Further, the AC50 under setting [1] was 0.082 µM [rising, full curve].

Turning to `NC(=NCCc1ccccc1)NS(=O)(=O)c1ccccc1F`, the cell number change is -8.96%. Besides, under setting [1], the AC50 was 0.731 µM [rising, single point].

Regarding `Nc1n[nH]c(N)c1N=Nc1ccccc1`, the cell number change is -3.98%. Moreover, under setting [1], the AC50 was 6.51 µM [falling, single point]. Regarding `Cc1ccc(C)c(N2CCN(C(=O)c3ccc(N4CCOCC4)c([N+](=O)[O-])c3)CC2)c1`, the cell number change was found to be 32.9%. For the same compound, the concentration at half-maximal activity (AC50) under setting [2] was 20.6 µM [rising, single point]. In the case of `COCCNC(=O)CN1C(=O)/C(=C/c2ccccc2)Oc2ccc(C(C)(C)C)cc21`, the cell number change was -62.3%. In addition, under setting [2], the AC50 is 6.51 µM [falling, partial curve]. Besides, the AC50 under setting [1] was 4.61 µM [falling, partial curve]. Take `Cc1ccnc(SCCn2c(N3CCN(C)CC3)nc3c2c(=O)[nH]c(=O)n3C)n1`: the cell number change was -51%. Besides, the AC50 under setting [2] was 29.1 µM [falling, single point]. Under setting [1], the AC50 was 29.1 µM [falling, single point]. Consider `CONc1nc(NC(C)(C)C)nc(OCC#N)n1`, for which the cell number change was 39.7%. For the same compound, the concentration at half-maximal activity (AC50) under setting [2] is 32.6 µM [rising, single point]. For the compound `Cc1ccccc1N1CCN(C2CCCN(C(=O)c3csc(C(C)C)n3)C2)CC1` (stereo unspecified), the cell number change was -21.3%. Also, the AC50 under setting [2] is 3.26 µM [rising, single point]. For `O=C(Nc1ccccc1)Nc1ccccc1C(=O)NCc1ccccc1`, the AC50 under setting [1] was 0.731 µM [rising, single point]. Take `CCSc1nnc(N2C(=O)c3ccc(C(=O)c4ccc(C(=O)O)cc4)cc3C2=O)s1`: the cell number change was -0.787%. Under setting [1], the AC50 was 18.4 µM [rising, partial curve].

In the case of `COc1ccc(C2=NN(C(=O)CSc3cn(C)c4ccccc34)C(c3ccc(OC)cc3)C2)cc1` (stereo unspecified), the concentration at half-maximal activity (AC50) under setting [1] was 1.84 µM [rising, partial curve]. For `CCCCCC(=O)Nc1nc(C)c(-c2csc(Nc3cc(OC)ccc3OC)n2)s1`, the AC50 under setting [1] is 2.06 µM [rising, partial curve, poor fit]. Regarding `NS(=O)(=O)c1ccc(N/C=C\C(=O)c2cccc3ccccc23)cc1`, the cell number change was 25.4%. Also, the AC50 under setting [1] is 0.206 µM [rising, partial curve]. With `CCCCn1c(=O)c(C(=O)c2ccccc2)nc2ccccc21`, the cell number change was 42.4%. Further, the AC50 under setting [2] is 32.6 µM [rising, single point]. Moreover, the AC50 under setting [1] was 29.1 µM [rising, single point].

For `CC(=O)c1c(C(C)=O)c(C)n(-c2nc(-c3cccs3)c(C)s2)c1C`, the AC50 is 6.51 µM [rising, single point] under setting [2] and 6.51 µM [rising, partial curve] under setting [1].
